The first data set in a line: general procedure: solution-phase peptide synthesis; HATU / N,N-diisopropylethylamine. The settings on record: conjugation step, trifluoroacetic acid (1:1) salt.
In the case of “N-Acetyl-L-alanyl-L-alanyl-N^1-[(2S)-4-[{(1R)-1-[1-benzyl-4-(2,5-difluorophenyl)-1H-pyrrol-2-yl]-2,2-dimethylpropyl}(glycoloyl)amino]-1-({3-[(bromoacetyl)amino]propyl}amino)-1-oxobutan-2-yl]-L-aspartamide”, the conjugation yield is recorded as 24% of theory.
As to “N-(pyridin-4-ylacetyl)-L-alanyl-L-alanyl-N1-{(2S)-4-[{(1R)-1-[1-benzyl-4-(2,5-difluorophenyl)-1H-pyrrol-2-yl]-2,2-dimethylpropyl}(glycoloyl)amino]-1-[(2-{[(2,5-dioxo-2,5-dihydro-1H-pyrrol-1-yl)acetyl]amino}ethyl)amino]-1-oxobutan-2-yl}-L-aspartamide Trifluoroacetate (1:1)”, the conjugation yield was 34% of theory.
Turning to “N-{[2-(2-methoxyethoxy)ethoxy]acetyl}-L-alanyl-L-alanyl-N^1-{(2S)-4-[{(1R)-1-[1-benzyl-4-(2,5-difluorophenyl)-1H-pyrrol-2-yl]-2,2-dimethylpropyl}(glycoloyl)amino]-1-[(2-{[(2,5-dioxo-2,5-dihydro-1H-pyrrol-1-yl)acetyl]amino}ethyl)amino]-1-oxobutan-2-yl}-L-aspartamide”, the conjugation yield is 47% of theory.
Turning to “N-Methyl-N-(pyridin-4-ylacetyl)-L-alanyl-L-alanyl-N1-{(2S)-4-[{(1R)-1-[1-benzyl-4-(2,5-difluorophenyl)-1H-pyrrol-2-yl]-2,2-dimethylpropyl}(glycoloyl)amino]-1-[(2-{[(2,5-dioxo-2,5-dihydro-1H-pyrrol-1-yl)acetyl]amino}ethyl)amino]-1-oxobutan-2-yl}-L-aspartamide”, the conjugation yield is recorded as 19% of theory.
As to “N-isonicotinoyl-L-alanyl-L-alanyl-N1-{(2S)-4-[{(1R)-1-[1-benzyl-4-(2,5-difluorophenyl)-1H-pyrrol-2-yl]-2,2-dimethylpropyl}(glycoloyl)amino]-1-[(2-{[(2,5-dioxo-2,5-dihydro-1H-pyrrol-1-yl)acetyl]amino}ethyl)amino]-1-oxobutan-2-yl}-L-aspartamide Trifluoroacetate (1:1)”, the conjugation yield is reported as 46% of theory.
Consider “N-(Pyridin-4-ylacetyl)-L-alanyl-N-methyl-L-alanyl-N^1-{(2S)-4-[{(1R)-1-[1-benzyl-4-(2,5-difluorophenyl)-1H-pyrrol-2-yl]-2,2-dimethylpropyl}(glycoloyl)amino]-1-[(2-{[(2,5-dioxo-2,5-dihydro-1H-pyrrol-1-yl)acetyl]amino}ethyl)amino]-1-oxobutan-2-yl}-L-aspartamide”, for which the conjugation yield is recorded as 17% of theory.
On to “Trifluoroacetic Acid/N-[(benzyloxy)carbonyl]-L-alanyl-L-alanyl-N^1-[(11S,15R)-15-[1-benzyl-4-(2,5-difluorophenyl)-1H-pyrrol-2-yl]-1-(2,5-dioxo-2,5-dihydro-1H-pyrrol-1-yl)-14-glycoloyl-16,16-dimethyl-6,6-dioxido-2,10-dioxo-6lambda^6-thia-3,9,14-triazaheptadecan-11-yl]-L-aspartamide (1:1)”, for which the conjugation yield was 13% of theory.

The same data set, now with this note: late stage modification step, trifluoroacetic acid (1:1) salt.
As to “N-{5-[(2,5-Dioxopyrrolidin-1-yl)oxy]-5-oxopentanoyl}-L-alanyl-L-alanyl-N-{(1S)-3-[{(1R)-1-[1-benzyl-4-(2,5-difluorophenyl)-1H-pyrrol-2-yl]-2,2-dimethylpropyl}(glycoloyl)amino]-1-carboxypropyl}-L-aspartamide”, the step yield was 27% of theory.
On the same count and under the same terms, in the case of “L-alanyl-L-alanyl-N1-{(1S)-3-[{(1R)-1-[1-benzyl-4-(2,5-difluorophenyl)-1H-pyrrol-2-yl]-2,2-dimethylpropyl}(glycoloyl)amino]-1-carboxypropyl}-L-aspartamide” it was 87% of theory; in that of “N-[(2,5-Dioxo-2,5-dihydro-1H-pyrrol-1-yl)acetyl]-L-alanyl-L-alanyl-N-{(1S)-3-[{(1R)-1-[1-benzyl-4-(2,5-difluorophenyl)-1H-pyrrol-2-yl]-2,2-dimethylpropyl}(glycoloyl)amino]-1-carboxypropyl}-L-aspartamide”, 29% of theory; in that of “N-[(Benzyloxy)carbonyl]-L-alanyl-L-alpha-asparagyl-N^1-{(2S)-4-[{(1R)-1-[1-benzyl-4-(2,5-difluorophenyl)-1H-pyrrol-2-yl]-2,2-dimethylpropyl}(glycoloyl)amino]-1-[(2-{[(2,5-dioxo-2,5-dihydro-1H-pyrrol-1-yl)acetyl]amino}ethyl)amino]-1-oxobutan-2-yl}-L-aspartamide/trifluoroacetic Acid (1:1)”, 46% of theory.

For the origin of these results see patent US11123439B2 (Bayer Pharma Aktiengesellschaft, priority 2015, dated 2021).
